Laboratory results: PubChem BioAssay AID1259405 (NCATS, 2018)
Shown is an unselected part of about 50,000 reagents tested. About 4,000 of all reagents (8%) count as active. 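Mouse siRNA library applied to hamster cells; one well for each siRNA.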 Entries without a mark were called inactive. Reagents against one gene are numbered here.

- Test: 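Knock-downs that lift recombinant protein yield in hamster ovary cells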 (primary screen)
- Cells: Chinese hamster CHO-K1 ovary cells with stable secreted eGFP expression
- Knock-down reagent: single siRNA against mouse genes, 0.8 pmol siRNA per well (2 µl of 400 nM stock)
- Time to read-out: 3 days
- Read-out: 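Per-well intracellular GFP measured by laser scanning cytometry, plus viability from ATP luminescence, each relative to plate median of non-targeting control wells, in %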
- Reading the numbers: GFP, % of control: higher = more GFP per well, higher productivity; viability (ATP), % of control: higher = more viable cells (more ATP)
- Hit rule: 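Called active when intracellular GFP, relative to negative control, is at or above 120%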

gene knocked down | reagent no. | GFP, % of control | viability (ATP), % of control
Lkaaear1 | 1 | 65 | 63.2
Lkaaear1 | 2 | 67 | 71.2
Lkaaear1 | 3 | 62.1 | 80.4
Mylip | 1 | 49.6 | 46.5
Mylip | 2 | 82.4 | 74.4
Ddx19a | 1 | 71.6 | 77.4
Ddx19a | 2 | 61.5 | 65.3
Ddx19a | 3 | 104 | 92.1
Erich5 | 1 | 53.4 | 68.2
Erich5 | 2 | 60.6 | 79.6
Erich5 | 3 | 123 (active) | 124
Rgs18 | 1 | 67.3 | 71.9
Rgs18 | 2 | 37.3 | 18.7
Rgs18 | 3 | 74.7 | 51.9
Ubtf | 1 | 138 (active) | 110
Ubtf | 2 | 91.6 | 68.8
Trabd | 1 | 69.6 | 57.9
Trabd | 2 | 93.3 | 85.8
Trabd | 3 | 44.7 | 77.8
Arhgdia | 1 | 131 (active) | 76.4
Arhgdia | 2 | 114 | 103
Arhgdia | 3 | 72 | 93.2
Ca5b | 1 | 90.7 | 111
Ca5b | 2 | 55.3 | 68.5
Lmo4 | 1 | 93.1 | 90.1
Lmo4 | 2 | 144 (active) | 163
Vcp | 1 | 6.62 | 6.49
Vcp | 2 | 57.1 | 67.2
Vcp | 3 | 25.4 | 17.1
Supt4a | 1 | 106 | 111
Supt4a | 2 | 127 (active) | 100
Naca | 1 | 128 (active) | 93.3
Naca | 2 | 47.1 | 33.5
Pbrm1 | 1 | 99.9 | 93.1
Pbrm1 | 2 | 85.9 | 76
Pbrm1 | 3 | 68.8 | 78.9
Pigb | 1 | 143 (active) | 85.8
Pigb | 2 | 160 (active) | 124
Pigb | 3 | 103 | 126
Dlec1 | 1 | 64.4 | 55.6
Dlec1 | 2 | 102 | 68.5
Dlec1 | 3 | 76.3 | 73.4
Parg | 1 | 50.6 | 72.4
Parg | 2 | 83.1 | 86.5
Parg | 3 | 64.4 | 79.4

Only “viability (ATP), % of control” (10 entries from above):
Pbrm1 #2 = 76
Pbrm1 #3 = 78.9
Pigb #1 = 85.8 (active)
Pigb #2 = 124 (active)
Pigb #3 = 126
Dlec1 #1 = 55.6
Dlec1 #2 = 68.5
Dlec1 #3 = 73.4
Parg #1 = 72.4
Parg #2 = 86.5

The results go on.
gene knocked down | reagent no. | GFP, % of control | viability (ATP), % of control
Krtap19-3 | 1 | 75.5 | 82.9
Krtap19-3 | 2 | 70.6 | 59.5
Krtap19-3 | 3 | 173 (active) | 85.2
Plcd4 | 1 | 68.9 | 77
Plcd4 | 2 | 121 (active) | 85.9
Plcd4 | 3 | 42.4 | 47.5
Hmg20a | 1 | 65.5 | 99.5
Hmg20a | 2 | 31.2 | 43.4
Hmg20a | 3 | 106 | 96.1
Rps6ka2 | 1 | 79.8 | 83.4
Rps6ka2 | 2 | 88.1 | 78.4
Rps6ka2 | 3 | 94.2 | 73.9
Med9 | 1 | 66.1 | 73.7
Med9 | 2 | 94.2 | 103
Med9 | 3 | 95.2 | 114
Erp29 | 1 | 95 | 69.7
Erp29 | 2 | 95.5 | 88.7
Erp29 | 3 | 48.4 | 60.6
Slc4a1 | 1 | 80.8 | 111
Slc4a1 | 2 | 65.6 | 61.9
Slc4a1 | 3 | 36.6 | 68.4
Xtbd1 | 1 | 71.7 | 67.3
Xtbd1 | 2 | 90.5 | 81.1
Xtbd1 | 3 | 82.5 | 82.9
H4c9 | 1 | 75.6 | 80.4
H4c9 | 2 | 96.8 | 99.1
H4c9 | 3 | 51.4 | 76.7
Ifi205 | 1 | 92.3 | 80.9
Ifi205 | 2 | 94.1 | 67.6
Ifi205 | 3 | 88.3 | 109
Tnfaip8 | 1 | 95.1 | 79.4
Tnfaip8 | 2 | 112 | 111
Tnfaip8 | 3 | 133 (active) | 114
Tmem167 | 1 | 114 | 96.4
Tmem167 | 2 | 81.1 | 70.2
Tmem167 | 3 | 79.5 | 39.5
Yipf1 | 1 | 61.5 | 63.5
Yipf1 | 2 | 113 | 75.7
Yipf1 | 3 | 181 (active) | 139
